Laboratory results published in patent publication EP2072528A1.
These are yes or no findings as the source states them, for the method shown. For some of these results: Binding seen in cells or lysates may run through a third protein. Some binding calls cover weakened binding; strength is not graded here.

Amino acid sequences for entries named in this document (tags omitted). A change or cut given only in a name is not applied to a line headed by its entry.
UniProt P26641: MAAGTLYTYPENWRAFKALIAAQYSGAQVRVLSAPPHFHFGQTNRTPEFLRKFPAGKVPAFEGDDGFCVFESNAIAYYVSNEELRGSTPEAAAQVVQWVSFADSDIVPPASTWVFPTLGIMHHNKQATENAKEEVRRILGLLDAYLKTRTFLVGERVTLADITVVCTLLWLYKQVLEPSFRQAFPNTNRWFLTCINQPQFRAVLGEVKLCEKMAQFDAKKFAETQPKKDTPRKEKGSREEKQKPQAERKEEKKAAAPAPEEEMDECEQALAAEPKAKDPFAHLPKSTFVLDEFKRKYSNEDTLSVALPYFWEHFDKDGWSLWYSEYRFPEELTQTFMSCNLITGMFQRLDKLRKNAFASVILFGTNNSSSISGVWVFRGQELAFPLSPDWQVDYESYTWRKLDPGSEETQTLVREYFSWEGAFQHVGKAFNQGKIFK
UniProt Q96RP9: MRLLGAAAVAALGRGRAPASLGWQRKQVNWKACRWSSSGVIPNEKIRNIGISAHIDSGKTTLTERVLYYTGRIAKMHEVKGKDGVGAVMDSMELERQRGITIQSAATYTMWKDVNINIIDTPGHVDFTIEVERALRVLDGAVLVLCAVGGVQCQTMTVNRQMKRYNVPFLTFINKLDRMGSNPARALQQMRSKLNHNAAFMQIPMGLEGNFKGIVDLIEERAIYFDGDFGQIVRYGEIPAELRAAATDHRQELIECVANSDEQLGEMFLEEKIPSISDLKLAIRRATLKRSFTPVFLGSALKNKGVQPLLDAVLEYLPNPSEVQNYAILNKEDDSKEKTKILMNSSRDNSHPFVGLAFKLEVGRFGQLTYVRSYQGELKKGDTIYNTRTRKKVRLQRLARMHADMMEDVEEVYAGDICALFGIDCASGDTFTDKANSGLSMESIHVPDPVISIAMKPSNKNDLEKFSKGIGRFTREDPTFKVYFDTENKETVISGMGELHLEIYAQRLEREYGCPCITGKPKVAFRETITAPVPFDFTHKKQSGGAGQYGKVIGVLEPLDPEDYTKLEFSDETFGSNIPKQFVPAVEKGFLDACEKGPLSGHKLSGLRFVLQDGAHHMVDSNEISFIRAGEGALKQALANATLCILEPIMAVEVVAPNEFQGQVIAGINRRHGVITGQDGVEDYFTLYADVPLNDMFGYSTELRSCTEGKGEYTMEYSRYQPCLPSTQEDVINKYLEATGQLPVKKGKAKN
UniProt P15090: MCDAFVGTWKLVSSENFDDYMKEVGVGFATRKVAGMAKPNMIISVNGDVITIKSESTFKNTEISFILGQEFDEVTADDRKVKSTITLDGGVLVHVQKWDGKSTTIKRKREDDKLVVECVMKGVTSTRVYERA
UniProt P05413: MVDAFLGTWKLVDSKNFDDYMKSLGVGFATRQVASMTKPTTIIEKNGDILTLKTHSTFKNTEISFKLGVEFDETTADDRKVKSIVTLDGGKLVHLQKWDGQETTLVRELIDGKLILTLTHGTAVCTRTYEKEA
UniProt Q16654: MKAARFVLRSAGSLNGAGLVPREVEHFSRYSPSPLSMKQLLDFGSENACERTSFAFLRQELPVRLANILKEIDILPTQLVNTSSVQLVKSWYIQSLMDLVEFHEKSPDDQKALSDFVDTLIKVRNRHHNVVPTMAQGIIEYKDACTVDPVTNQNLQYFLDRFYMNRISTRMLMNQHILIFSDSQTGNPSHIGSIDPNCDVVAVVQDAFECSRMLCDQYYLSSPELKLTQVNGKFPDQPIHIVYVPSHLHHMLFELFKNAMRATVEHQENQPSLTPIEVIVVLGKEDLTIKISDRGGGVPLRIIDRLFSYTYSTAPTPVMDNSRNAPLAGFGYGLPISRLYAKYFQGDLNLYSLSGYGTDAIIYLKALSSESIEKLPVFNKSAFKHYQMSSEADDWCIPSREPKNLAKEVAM
UniProt Q15327: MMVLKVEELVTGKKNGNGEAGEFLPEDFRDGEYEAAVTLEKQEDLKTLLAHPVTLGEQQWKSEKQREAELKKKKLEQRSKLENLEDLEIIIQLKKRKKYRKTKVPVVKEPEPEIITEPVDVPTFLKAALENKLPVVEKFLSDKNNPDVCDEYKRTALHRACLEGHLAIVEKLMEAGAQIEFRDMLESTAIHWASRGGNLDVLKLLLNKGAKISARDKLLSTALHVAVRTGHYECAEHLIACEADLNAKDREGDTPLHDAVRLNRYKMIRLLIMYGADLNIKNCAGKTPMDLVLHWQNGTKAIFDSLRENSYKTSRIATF
UniProt P13929: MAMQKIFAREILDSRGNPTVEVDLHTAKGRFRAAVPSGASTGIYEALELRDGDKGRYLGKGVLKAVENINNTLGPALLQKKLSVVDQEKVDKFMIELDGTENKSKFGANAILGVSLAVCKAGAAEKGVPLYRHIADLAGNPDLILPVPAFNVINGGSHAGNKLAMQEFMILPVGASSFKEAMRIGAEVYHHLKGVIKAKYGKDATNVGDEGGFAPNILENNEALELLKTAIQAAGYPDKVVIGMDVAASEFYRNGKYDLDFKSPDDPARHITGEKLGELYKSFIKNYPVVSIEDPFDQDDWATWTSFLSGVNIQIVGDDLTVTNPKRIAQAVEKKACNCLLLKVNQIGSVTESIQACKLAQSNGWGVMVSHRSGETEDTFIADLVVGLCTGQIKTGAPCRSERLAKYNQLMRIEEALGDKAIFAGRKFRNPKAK
UniProt Q969Q1: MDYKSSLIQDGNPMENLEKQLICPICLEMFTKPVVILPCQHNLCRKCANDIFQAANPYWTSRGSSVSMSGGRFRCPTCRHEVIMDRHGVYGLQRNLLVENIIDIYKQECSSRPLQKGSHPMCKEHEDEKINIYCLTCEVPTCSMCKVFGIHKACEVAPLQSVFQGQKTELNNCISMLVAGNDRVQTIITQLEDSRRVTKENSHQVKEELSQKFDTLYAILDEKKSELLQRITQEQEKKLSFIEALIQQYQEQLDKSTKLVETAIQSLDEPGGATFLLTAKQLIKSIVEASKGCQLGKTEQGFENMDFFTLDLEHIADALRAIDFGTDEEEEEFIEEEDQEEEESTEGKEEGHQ
UniProt Q9BYV6: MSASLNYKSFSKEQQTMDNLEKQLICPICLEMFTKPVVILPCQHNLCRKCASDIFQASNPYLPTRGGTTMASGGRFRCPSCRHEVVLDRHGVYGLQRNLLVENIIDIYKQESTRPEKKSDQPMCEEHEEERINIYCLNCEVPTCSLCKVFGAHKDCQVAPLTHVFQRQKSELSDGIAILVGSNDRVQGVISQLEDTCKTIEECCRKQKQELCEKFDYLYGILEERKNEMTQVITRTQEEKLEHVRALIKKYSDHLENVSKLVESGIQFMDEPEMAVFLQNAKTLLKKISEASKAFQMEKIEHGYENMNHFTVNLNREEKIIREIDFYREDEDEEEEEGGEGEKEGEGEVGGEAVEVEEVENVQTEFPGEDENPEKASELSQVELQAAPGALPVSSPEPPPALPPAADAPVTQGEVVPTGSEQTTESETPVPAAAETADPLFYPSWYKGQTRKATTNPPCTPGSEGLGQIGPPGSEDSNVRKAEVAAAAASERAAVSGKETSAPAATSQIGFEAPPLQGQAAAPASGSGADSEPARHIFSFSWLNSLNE

Legend:
[1] = molecular target: EEF1G Maltose Binding Protein (MBP)-fusion protein (human) (UniProt P26641); test: in vitro pulldown with MBP-fusion protein
[2] = molecular target: GFM1 Maltose Binding Protein (MBP)-fusion protein (human) (UniProt Q96RP9); test: in vitro pulldown with MBP-fusion protein
DDIT4L (human) = molecular target: T1, DDIT4L (human) (UniProt Q96D03); test: yeast two-hybrid (Figure 7)
T1 sequence (looked up): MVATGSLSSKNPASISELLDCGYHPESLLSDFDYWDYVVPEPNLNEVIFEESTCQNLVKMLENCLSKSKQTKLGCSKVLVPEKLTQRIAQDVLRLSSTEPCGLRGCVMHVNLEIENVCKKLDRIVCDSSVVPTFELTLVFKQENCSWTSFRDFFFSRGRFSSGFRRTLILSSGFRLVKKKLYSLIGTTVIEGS

[3] = molecular target: FABP4 (NP_001433.1) (human) (UniProt P15090); test: yeast two-hybrid
[4] = molecular target: FABP3 (NP_004093.1) (human) (UniProt P05413); test: yeast two-hybrid
[5] = molecular target: T2, FHL2 (NP_963851.2) (human) (UniProt Q14192); test: yeast two-hybrid
T2 sequence (looked up): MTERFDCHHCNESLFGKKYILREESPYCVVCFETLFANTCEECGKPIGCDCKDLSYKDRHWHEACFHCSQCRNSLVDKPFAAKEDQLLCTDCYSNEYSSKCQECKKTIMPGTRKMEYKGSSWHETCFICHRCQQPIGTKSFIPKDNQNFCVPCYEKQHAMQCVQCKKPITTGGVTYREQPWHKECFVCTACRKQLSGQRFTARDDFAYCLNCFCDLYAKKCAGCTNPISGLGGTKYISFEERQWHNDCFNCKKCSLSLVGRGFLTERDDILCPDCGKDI

[6] = molecular target: T3, PRDX3 (NP_006784.1) (human) (UniProt P30048); test: yeast two-hybrid
T3 sequence (looked up): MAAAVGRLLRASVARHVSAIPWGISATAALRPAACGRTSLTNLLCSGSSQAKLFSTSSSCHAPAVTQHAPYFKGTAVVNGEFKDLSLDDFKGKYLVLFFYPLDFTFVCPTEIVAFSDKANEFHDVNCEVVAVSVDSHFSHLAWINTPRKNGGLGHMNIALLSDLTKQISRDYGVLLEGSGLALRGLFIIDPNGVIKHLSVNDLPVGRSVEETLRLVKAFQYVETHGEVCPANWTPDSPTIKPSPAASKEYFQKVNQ

[7] = molecular target: PDK4 (NP_002603.1) (human) (UniProt Q16654); test: yeast two-hybrid
[8] = molecular target: T4, PDHB (NP_000916.2) (human) (UniProt P11177); test: yeast two-hybrid
T4 sequence (looked up): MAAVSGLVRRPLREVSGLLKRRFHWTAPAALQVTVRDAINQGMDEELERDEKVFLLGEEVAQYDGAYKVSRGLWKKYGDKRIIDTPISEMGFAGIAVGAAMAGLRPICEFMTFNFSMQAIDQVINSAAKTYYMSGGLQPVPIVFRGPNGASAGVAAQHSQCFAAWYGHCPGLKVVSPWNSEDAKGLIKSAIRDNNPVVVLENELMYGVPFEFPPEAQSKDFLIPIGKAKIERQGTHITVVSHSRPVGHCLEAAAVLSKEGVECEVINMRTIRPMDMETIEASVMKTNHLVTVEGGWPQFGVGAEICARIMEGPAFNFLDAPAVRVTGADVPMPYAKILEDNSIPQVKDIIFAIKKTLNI

[9] = molecular target: CARP (NP_055206.2) (human) (UniProt Q15327); test: yeast two-hybrid
[10] = molecular target: EEF1G (NP_001395.1) (human) (UniProt P26641); test: yeast two-hybrid
[11] = molecular target: GFM1 (NP_079272.4) (human) (UniProt Q96RP9); test: yeast two-hybrid
[12] = molecular target: sequestosome-1 (NP_003891.1) (human) (UniProt Q13501); test: yeast two-hybrid
[13] = molecular target: ENO3 (NP_443739.2) (human) (UniProt P13929); test: yeast two-hybrid
[14] = molecular target: FABP4 (NP_001433.1) (human) (UniProt P15090); test: yeast two-hybrid, full length bait
[15] = molecular target: FABP3 (NP_004093.1) (human) (UniProt P05413); test: yeast two-hybrid, full length bait
[16] = molecular target: T2, FHL2 (NP_963851.2) (human); test: yeast two-hybrid, full length bait
[17] = molecular target: T3, PRDX3 (NP_006784.1) (human); test: yeast two-hybrid, full length bait
[18] = molecular target: PDK4 (NP_002603.1) (human) (UniProt Q16654); test: yeast two-hybrid, full length bait
[19] = molecular target: T4, PDHB (NP_000916.2) (human); test: yeast two-hybrid, full length bait
[20] = molecular target: CARP (NP_055206.2) (human) (UniProt Q15327); test: yeast two-hybrid, full length bait
[21] = molecular target: EEF1G (NP_001395.1) (human) (UniProt P26641); test: yeast two-hybrid, full length bait
[22] = molecular target: GFM1 (NP_079272.4) (human) (UniProt Q96RP9); test: yeast two-hybrid, full length bait
[23] = molecular target: sequestosome-1 (NP_003891.1) (human) (UniProt Q13501); test: yeast two-hybrid, full length bait
[24] = molecular target: ENO3 (NP_443739.2) (human) (UniProt P13929); test: yeast two-hybrid, full length bait
[25] = molecular target: titin fragment A168-170 GST-fusion protein [GST: P08515]; test: Alpha screen (amplified luminescent proximity homogenous assay), streptavidin donor and glutathione acceptor beads, titration in microtitre wells

Measured: binding

212 amino acid residue central fragment of human MuRF1 (MuRF1 Bcc, B-Box + coiled-coil domain) (from UniProt Q969Q1 116-327)
binds: [1] | [2]

human MuRF2 polypeptide (muscle ring finger 2), full length (from UniProt Q9BYV6 17-548) (enzyme)
not listed: [1] | [2] | [25]
binds: all other assays above

biotin-labeled 212-residue MuRF1 Bcc (from UniProt Q969Q1 116-327)
binds: [25]

human MuRF1 polypeptide (muscle ring finger 1), full length (from UniProt Q969Q1 14-353) (enzyme)
binds: DDIT4L (human) | [6] | [7] | [8] | [9] | [11] | [17] | [18] | [19] | [20] | [22]
